Reference: patent US20230272082A1 (SENSEI BIOTHERAPEUTICS, published 2023)
No constants are given. Whether binding was seen depends on the method and setting. Some binding calls cover weakened binding; strength is not graded here.

Protein sequences, listed by entry. Tags and fused reporters are not part of them. Residues count along the entry.
UniProt Q9H7M9, residues 33-194: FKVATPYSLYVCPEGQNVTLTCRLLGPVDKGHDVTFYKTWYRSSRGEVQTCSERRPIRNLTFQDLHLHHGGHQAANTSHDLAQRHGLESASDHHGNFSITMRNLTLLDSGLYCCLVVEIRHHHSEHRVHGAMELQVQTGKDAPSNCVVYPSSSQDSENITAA

Target: T1, PSGL-1 on primary T-cells (human) (UniProt Q14242)
T1 sequence (looked up): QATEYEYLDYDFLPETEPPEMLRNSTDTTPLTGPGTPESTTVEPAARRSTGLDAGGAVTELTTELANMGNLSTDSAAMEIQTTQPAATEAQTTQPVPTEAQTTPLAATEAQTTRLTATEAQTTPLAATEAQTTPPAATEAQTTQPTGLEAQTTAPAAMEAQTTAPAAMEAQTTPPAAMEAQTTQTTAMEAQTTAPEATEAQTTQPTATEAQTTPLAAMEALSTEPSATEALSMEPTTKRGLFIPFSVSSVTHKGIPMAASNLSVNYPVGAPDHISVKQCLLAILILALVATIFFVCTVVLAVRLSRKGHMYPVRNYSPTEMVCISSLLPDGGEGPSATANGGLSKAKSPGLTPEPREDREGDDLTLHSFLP
Assay: dextramer staining of primary T-cells at pH 6.0, flow cytometry (FIG. 4A)

In the case of “VISTA-Dextramer-PE (from UniProt Q9H7M9 33-194)”, the binding is reported as “binds”.
